Hit rate of the full screen: of about 360,000 compounds, about 1,700 (0.47%) were called active. The inconclusive results got no clear call from the source; some entries with a clear call stand among them for comparison. Calls come from the whole dose curve; as a rule, active = well fitted inhibition curve with a large enough effect; inconclusive = small, poorly fitted or top-dose-only effect; inactive = no such curve, though single readings can be large or run the other way. A potency beside an inconclusive call is a rough fit, not a confirmed value.
The molecules below were run against Bifunctional 3'-5' exonuclease/ATP-dependent helicase WRN (Homo sapiens) (UniProt Q14191) (assay: qHTS for Inhibitors of WRN Helicase). Conditions: WRN helicase unwinding, fluorescent forked duplex, kinetic; activity change, negative = inhibition: at 114 µM (top of the series) unless noted.
Procedure, shortened: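 Primary qHTS, 1536-well format. 20 nM WRN + compound, 15 min RT; start with 100 nM forked fluorophore/quencher duplex, 2 mM ATP (final); kinetic read ex 525/em 598 nm.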
% is set by controls: 0 for no effect and ±100 for the full control effect; potency is the fitted concentration of half-maximal effect.
Note: nearly all actives have a fitted effect of over 55% in size.

The chains behind the UniProt entries cited, without tags or fusion partners.
UniProt Q14191, whole entry, looked up: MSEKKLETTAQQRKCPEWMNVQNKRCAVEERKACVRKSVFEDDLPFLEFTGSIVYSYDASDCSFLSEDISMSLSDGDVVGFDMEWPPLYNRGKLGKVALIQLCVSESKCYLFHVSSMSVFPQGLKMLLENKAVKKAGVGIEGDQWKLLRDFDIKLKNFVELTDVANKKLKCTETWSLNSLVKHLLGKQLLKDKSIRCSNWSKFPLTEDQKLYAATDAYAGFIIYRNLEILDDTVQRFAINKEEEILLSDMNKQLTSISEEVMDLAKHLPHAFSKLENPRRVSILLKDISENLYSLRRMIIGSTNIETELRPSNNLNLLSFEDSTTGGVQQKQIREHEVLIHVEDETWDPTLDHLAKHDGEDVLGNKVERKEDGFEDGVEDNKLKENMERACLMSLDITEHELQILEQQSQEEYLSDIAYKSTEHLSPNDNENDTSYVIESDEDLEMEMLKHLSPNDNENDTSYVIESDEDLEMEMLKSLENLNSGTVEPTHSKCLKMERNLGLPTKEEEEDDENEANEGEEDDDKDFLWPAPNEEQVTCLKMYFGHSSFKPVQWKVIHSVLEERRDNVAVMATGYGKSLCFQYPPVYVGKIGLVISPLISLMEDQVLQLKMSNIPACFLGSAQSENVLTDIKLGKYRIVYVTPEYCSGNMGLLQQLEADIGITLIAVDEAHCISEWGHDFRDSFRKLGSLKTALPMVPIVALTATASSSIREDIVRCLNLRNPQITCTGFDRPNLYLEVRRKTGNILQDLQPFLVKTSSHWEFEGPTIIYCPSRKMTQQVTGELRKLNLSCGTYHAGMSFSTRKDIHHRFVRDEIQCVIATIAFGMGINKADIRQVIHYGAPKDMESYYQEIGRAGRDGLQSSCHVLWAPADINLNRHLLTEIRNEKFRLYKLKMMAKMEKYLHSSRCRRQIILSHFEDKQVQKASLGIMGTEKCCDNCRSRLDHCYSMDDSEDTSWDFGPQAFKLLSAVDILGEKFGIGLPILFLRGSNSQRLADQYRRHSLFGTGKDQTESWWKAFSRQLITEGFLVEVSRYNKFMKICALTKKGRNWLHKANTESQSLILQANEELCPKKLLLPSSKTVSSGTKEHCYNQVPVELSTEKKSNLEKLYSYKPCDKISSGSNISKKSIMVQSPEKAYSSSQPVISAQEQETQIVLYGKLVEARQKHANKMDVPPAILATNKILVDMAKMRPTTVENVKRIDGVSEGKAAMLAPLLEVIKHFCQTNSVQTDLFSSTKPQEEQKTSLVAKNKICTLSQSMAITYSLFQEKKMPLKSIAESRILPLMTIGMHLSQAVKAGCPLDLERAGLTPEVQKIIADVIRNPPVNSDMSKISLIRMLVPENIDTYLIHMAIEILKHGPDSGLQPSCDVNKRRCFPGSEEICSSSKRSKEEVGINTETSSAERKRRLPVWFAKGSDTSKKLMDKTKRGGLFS

SMILES | activity change, negative = inhibition | Potency
CCC(C)NC(=O)CSc1nnc(-c2cc(OC)c(OC)c(OC)c2)c(-c2cc(OC)c(OC)c(OC)c2)n1 (configuration not stated) | inactive: -0.88% | –
O=C1/C(=C\c2cc(Cl)c(O)c(Cl)c2)SC(=S)N1Cc1ccccc1 | – | active: 11.2 µM
Cc1ccc(SC2=C(N(C)C)C(=O)c3ccccc3C2=O)cc1 | inactive: -10.9% | –
O=C(O)CC1S/C(=N/N=C/c2ccc(-c3ccc(Cl)cc3[N+](=O)[O-])o2)NC1=O (configuration not stated) | – | inconclusive: 56.2 µM [inhibitor, partial curve]
CC1(C)CC(=O)C2=C(C1)Nc1ccccc1NC2c1ccc(F)cc1 (configuration not stated) | inactive: -4.12% [at 57.1 µM] | –
O=C(O)c1cc(-c2ccc(-c3c(-c4ccc5c(c4)OCO5)noc3-c3ccsc3)cc2)nc2ccccc12 | – | inconclusive: 79.4 µM [inhibitor, partial curve]
COc1cccc2c1C1(O)C2CCCCCCCCCC12OCCCO2 (configuration not stated) | inactive: 3.35% | –
Cc1ccc([N+](=O)[O-])cc1NC1CC(O)C(CO)O1 (configuration not stated) | – | inconclusive: 12.6 µM [inhibitor, single point]
O=C(CN1C(=O)c2ccc([N+](=O)[O-])cc2C1=O)NC1CCS(=O)(=O)C1 (configuration not stated) | – | inconclusive: 25.1 µM [inhibitor, full curve, poor fit]
CCCOc1ccc(C2C(C(=O)c3ccc(C)o3)=C(O)C(=O)N2Cc2ccco2)cc1OCC (configuration not stated) | inactive: -12.2% | –
COc1ccc(OC)c(-n2c(=O)c3ccccc3c3ccccc3c2=O)c1 | – | inconclusive: 31.6 µM [inhibitor, partial curve]
O=C(O)C(Cc1ccccc1)N1C(=O)/C(=C/C=C/c2ccco2)SC1=S (configuration not stated) | – | active: 10 µM
COC1=CC(=O)C(C2CC(=O)c3c(O)cc(O)cc3O2)=CC1=O (configuration not stated) | – | active: 28.2 µM
C=C(C)C(=O)Nc1cccc(C2=NOC3(C2)C[C@@H](C(N)=O)N(C(=O)CC(c2ccccc2)c2ccccc2)C3)c1 (some centres not stated) | – | inconclusive: 23.8 µM [inhibitor, partial curve]
COCCn1nnnc1C(c1ccc(C)cc1)N1CCN(Cc2ccc3c(c2)OCO3)CC1 (configuration not stated) | inactive: 15.7% | –
Cc1cccc(N=C2NC(=O)/C(=C/C=C/c3ccco3)S2)c1C | – | active: 31.6 µM
COc1ccc(-c2cc(C(=O)Nc3cc(C)on3)no2)cc1OC | inactive: 2.61% | –
CC1CCCC2(C1)NC(=S)c1c(sc3c1CCCC3)N2 (configuration not stated) | inactive: -19.1% | –
COc1cc(CN2C[C@@H](CO)O[C@@H](n3cnc4c(N5CCOCC5)ncnc43)C2)cc(OC)c1OC | inactive: -0.549% | –
Cc1cc(C)n(-c2ccc(C(=O)Nc3cc(S(=O)(=O)N(C)C)ccc3Cl)cc2)n1 | – | inconclusive: 25.1 µM [inhibitor, single point]
O=C(CCCN1C(=O)/C(=C\c2ccccc2)SC1=S)Nc1ccc(O)cc1 | – | inconclusive: 70.8 µM [inhibitor, single point]
CCCn1nc([N+](=O)[O-])c(C(C#N)c2nc3ccccc3s2)c(Cl)c1=O (configuration not stated) | – | inconclusive: 50.1 µM [inhibitor, partial curve]
CCOc1ccc(C(=O)CC(C(=O)O)N2CCCCC2)cc1 (configuration not stated) | – | inconclusive: 56.2 µM [inhibitor, partial curve]

Whole records, looked up by structure. Order of values: activity change, negative = inhibition	Potency
CC1(C)CC(=O)C2=C(C1)Nc1ccccc1NC2c1ccc(F)cc1 (configuration not stated) as listed: inactive: -4.12% [at 57.1 µM]	–
COC1=CC(=O)C(C2CC(=O)c3c(O)cc(O)cc3O2)=CC1=O (configuration not stated) as listed: –	active: 28.2 µM

The list continues.

SMILES | activity change, negative = inhibition | Potency
CCCn1c(CCC(=O)O)nc2cc(S(=O)(=O)N3CCCC3)ccc21 | – | inconclusive: 63.1 µM [inhibitor, partial curve, poor fit]
COc1cc2c(cc1OC)-c1cc(Nc3ccc(C(=O)O)cc3)nc(=O)n1CC2 | – | inconclusive: 7.94 µM [inhibitor, full curve, poor fit]
N#Cc1c(-c2ccccc2)nc(SCC(=O)N2c3ccccc3Sc3ccccc32)[nH]c1=O | – | inconclusive: 56.2 µM [inhibitor, partial curve, poor fit]
O=C(CSc1nc2ccccc2n1CCc1ccccc1)c1ccc(O)c(O)c1 | – | active: 7.94 µM
COc1cc(NC(=O)c2cc([N+](=O)[O-])ccc2NC(=O)CNCc2ccccn2)cc(OC)c1 | – | inconclusive: 44.7 µM [inhibitor, partial curve]
Cc1ccc(OCC(=O)N/N=C\c2ccc(-c3cccc(C(=O)O)c3)o2)c(C)c1 | – | inconclusive: 35.5 µM [inhibitor, partial curve]
Cc1noc(C)c1NC(=O)N(C)C[C@H]1Oc2c(NC(=O)c3ccncc3)cccc2C(=O)N([C@H](C)CO)C[C@@H]1C | – | inconclusive: 79.4 µM [inhibitor, partial curve]
CC(=O)NC12CC3CC(C1)CC(C(=O)OCC(=O)Nc1ncc(Cl)c(C)c1Cl)(C3)C2 | – | inconclusive: 56.2 µM [inhibitor, partial curve]
CCCCNC(=O)COC(=O)c1c2c(nc3ccccc13)CCC2 | – | inconclusive: 44.7 µM [inhibitor, partial curve]
N/C(=N\OC(=O)c1cccc2ccccc12)c1cccc([N+](=O)[O-])c1 | inactive: -15.1% | –
O=C1c2ccccc2-c2onc3ccc(NCc4ccco4)c1c23 | – | inconclusive: 56.2 µM [inhibitor, partial curve, poor fit]
CSCCC(NC(=O)c1ccoc1C)C(=O)O (configuration not stated) | inactive: -0.999% | –
C=CCNCCCCOc1cccc(Br)c1 | – | inconclusive: 25.1 µM [inhibitor, single point]
CN(C)c1ccc(/C=C/c2cc[n+](C)cc2)cc1 | – | active: 79.4 µM
COc1ccc(-c2csc(NC(=O)CN3C(=O)C4CCCCC4C3=O)n2)c(OC)c1 (configuration not stated) | – | inconclusive: 89.1 µM [inhibitor, single point]
C#CCOCCOCCOCCNc1nc(N2CCN(C(=O)[C@H](Cc3cc4ccccc4[nH]3)n3cc([C@@H](N)C(C)CC)nn3)CC2)nc(N2CCN(C(=O)[C@H](CCCCN)n3cc([C@@H](N)CC(C)C)nn3)CC2)n1 (some centres not stated) | – | inconclusive: 50.1 µM [inhibitor, partial curve]
COc1cccc2cc(C(=O)C3=C(O)C(=O)N(CCN4CCOCC4)C3c3ccc(Cl)cc3)oc12 (configuration not stated) | inactive: -3.36% | –
N#Cc1nccnc1S(=O)(=O)c1cccs1 | – | active: 50.1 µM
COc1ccccc1-n1c(SCc2cc(=O)oc3cc(O)ccc23)nc2ccccc2c1=O | – | inconclusive: 112 µM [inhibitor, partial curve, poor fit]
CSc1nc(O)c(C(c2ccc(OC(C)C)cc2)c2c(O)nc(SC)[nH]c2=O)c(=O)[nH]1 | – | inconclusive: 50.1 µM [inhibitor, partial curve]
O=C(N/N=C/C=C\c1ccco1)c1ccccn1 | – | active: 35.5 µM
COc1ccc(S(=O)(=O)Nc2ccc3c(c2)[C@H]2C[C@H](CC(=O)NCC4CC4)O[C@@H](CO)[C@H]2O3)cc1 | inactive: -4.35% | –
Fc1ccccc1SCc1nnc(-c2ccccc2Br)o1 | – | inconclusive: 70.8 µM [inhibitor, partial curve]

SMILES | activity change, negative = inhibition | Potency
C=CCNc1nc(Cl)nc(Nc2cc(Cl)ccc2OC)n1 | inactive: 0.952% | –
C1COCCNCCOCCOCCOCCN1 | inactive: -12.2% | –
COc1ccc(CCNC(=O)c2cc(-c3ccco3)nc3ccccc23)cc1 | – | inconclusive: 35.5 µM [inhibitor, partial curve]
Cc1nn(Cc2ccc(Cl)cc2)c2sc(C(=O)O)cc12 | – | inconclusive: 70.8 µM [inhibitor, single point]
Cc1nn(CCc2nn[nH]n2)c2nc(-c3ccc(C4CCCCC4)cc3)cc(C(F)(F)F)c12 | – | inconclusive: 50.1 µM [inhibitor, partial curve]
COc1ccccc1N(/N=C1\Sc2ccccc2C1=O)C(C)=O | inactive: -8.32% [at 11.6 µM] | –
COc1ccc2ccc3c(c2c1)N=C[C@]1(O3)N(C)c2ccccc2C1(C)C | – | active: 11.2 µM
Cc1cc(C)n2nc(SCN3C(=O)c4ccccc4C3=O)nc2n1 | inactive: -12% | –
COc1cc(-c2csc(N3CCOCC3)n2)cc(OC)c1OC | inactive: 5.8% | –
NC(=O)c1ccccc1NC(=S)NC(=O)c1ccc(Br)o1 | – | inconclusive: 10 µM [inhibitor, partial curve]
O=C(Nc1ccc(N2CCOCC2)cc1)C1CCN(S(=O)(=O)c2ccc3c(c2)OCCO3)CC1 | – | inconclusive: 89.1 µM [inhibitor, single point]
CCOC(=O)/C(=C\c1cccc(O)c1)c1nc2sc(C)c(C)c2c(=O)[nH]1 | – | inconclusive: 31.6 µM [inhibitor, partial curve, poor fit]
CCCCNC(=O)N1CCN(c2ccnc3cc(Cl)ccc23)CC1 | – | active: 50.1 µM
COc1ccccc1C(=O)CSc1nccn1C | – | inconclusive: 89.1 µM [inhibitor, single point]
CCN(CC)CC(=O)Nc1cc(N(C)C)nc2ccccc12 | – | inconclusive: 35.5 µM [inhibitor, partial curve]
Nc1ccc(N2CCCC2)c(S(=O)(=O)Nc2cccc(C(F)(F)F)c2)c1 | – | inconclusive: 20 µM [inhibitor, full curve]
O=C(CC1C(=O)NCCN1Cc1cccc(F)c1)NC1CCCCCC1 (configuration not stated) | – | inconclusive: 15.8 µM [inhibitor, full curve, poor fit]
Cc1cc(C)c([N+](=O)[O-])cc1-c1ccc(/C=N/c2c(-c3ccco3)nc3ccccn23)o1 | – | inconclusive: 44.7 µM [inhibitor, partial curve]
CNC(=O)c1c(O)c2cccc3c2n(c1=O)CCC3 | – | inconclusive: 10 µM [inhibitor, full curve]
O=C(C[n+]1cc(-c2ccc(Cl)cc2)n2c1CCCCC2)c1ccccc1 | – | inconclusive: 8.91 µM [inhibitor, full curve, poor fit]
CC(=O)OCCNc1cc(SCc2ccco2)c2nonc2c1[N+](=O)[O-] | – | inconclusive: 31.6 µM [inhibitor, partial curve]

Filtered by structure, the entries above with a nitro group on carbon.
SMILES | activity change, negative = inhibition | Potency
O=C(O)CC1S/C(=N/N=C/c2ccc(-c3ccc(Cl)cc3[N+](=O)[O-])o2)NC1=O (configuration not stated) | – | inconclusive: 56.2 µM [inhibitor, partial curve]
Cc1ccc([N+](=O)[O-])cc1NC1CC(O)C(CO)O1 (configuration not stated) | – | inconclusive: 12.6 µM [inhibitor, single point]
O=C(CN1C(=O)c2ccc([N+](=O)[O-])cc2C1=O)NC1CCS(=O)(=O)C1 (configuration not stated) | – | inconclusive: 25.1 µM [inhibitor, full curve, poor fit]
CCCn1nc([N+](=O)[O-])c(C(C#N)c2nc3ccccc3s2)c(Cl)c1=O (configuration not stated) | – | inconclusive: 50.1 µM [inhibitor, partial curve]
COc1cc(NC(=O)c2cc([N+](=O)[O-])ccc2NC(=O)CNCc2ccccn2)cc(OC)c1 | – | inconclusive: 44.7 µM [inhibitor, partial curve]
N/C(=N\OC(=O)c1cccc2ccccc12)c1cccc([N+](=O)[O-])c1 | inactive: -15.1% | –
Cc1cc(C)c([N+](=O)[O-])cc1-c1ccc(/C=N/c2c(-c3ccco3)nc3ccccn23)o1 | – | inconclusive: 44.7 µM [inhibitor, partial curve]
CC(=O)OCCNc1cc(SCc2ccco2)c2nonc2c1[N+](=O)[O-] | – | inconclusive: 31.6 µM [inhibitor, partial curve]

Reference: PubChem BioAssay AID651768 (National Center for Advancing Translational Sciences (NCATS), 2012)
